Data on one molecule can be found in article doi:10.1101/2022.02.02.478833 (bioRxiv, 2022).

No constants are given. Whether binding was seen depends on the method and setting.

The target in the assay is T1, TANGO1 (30-139) from Drosophila melanogaster (Drosophila melanogaster) (UniProt Q9VMA7).
T1 sequence (chain, [U-15N]-enriched): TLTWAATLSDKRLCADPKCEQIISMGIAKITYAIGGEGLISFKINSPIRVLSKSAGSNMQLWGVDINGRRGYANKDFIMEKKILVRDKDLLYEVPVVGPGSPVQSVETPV
Description: NMR titration.

As for VPPPVPPRRR (peptide, UniProt Q07889 1149-1158, looked up) [class II PPII helix peptide SOS1 (1149-1158)], the binding result is “no binding”.
